Measured values taken from PubChem BioAssay AID1347076 (National Center for Advancing Translational Sciences (NCATS), 2019).
Out of some 400,000 compounds screened, about 13,000 (3.2%) were called active. The shares of active, inactive and inconclusive entries below differ from those in the screen. Calls follow the shape of the dose curve; as a rule, active = well fitted cell-killing curve with a large enough effect; inconclusive = small, poorly fitted or top-dose-only effect, or effect the other way; inactive = flat fitted curve, though single readings scatter. Potencies beside an inconclusive call are fits to weak or partial responses and may not hold up.

Experiment: qHTS assay for MDR1-selective chemotherapeutics: Primary screen using the drug-selected MDR subline cells KB-V1; also: nearly all actives have a fitted effect of over 60% in size
Conditions: KB-V1 MDR cells viability, CellTiter-Glo, 72 h; series mostly up to 46.1 µM
Summary of the method: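 Following 72 h at 37 degrees C with compound, KB-V1 cell viability was read by CellTiter-Glo luminescence, medium being phenol-red-free DMEM plus 10% FBS; concentration-response parameters came from normalized, curve-fitted qHTS data.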
Potency is read from the fitted curve at half-maximal effect.

| SMILES | Potency |
| --- | --- |
| CCCCCCn1c(N2CCCC2)nc2c1c(=O)n(C)c(=O)n2C | inconclusive: 4.61 µM [cytotoxic, partial curve] |
| O=C(Nc1ccccc1)OCCOc1ccccc1 | inconclusive: 3.26 µM [cytotoxic, partial curve, poor fit] |
| CC(C)Cn1c(SCC(=O)NC(=O)Nc2ccc3c(c2)OCCO3)nc2ccccc2c1=O | inconclusive: 20.6 µM [cytotoxic, single point] |
| COc1cc([N+](=O)[O-])cc(/C=N\NC(=O)C2COc3ccccc3O2)c1O (stereo unspecified) | inconclusive: 16.4 µM [cytotoxic, single point] |
| CCOc1ccc(C2N(c3ccc(F)cc3)C(=O)C3CCCN32)cc1OC (stereo unspecified) | inconclusive: 18.4 µM [rising, single point] |
| Cc1cc(-c2ccc(C(C)C)c(S(=O)(=O)N3CCN(c4ccccn4)CC3)c2)on1 | inconclusive: 23.1 µM [cytotoxic, single point] |
| Cc1nn(-c2ccccc2)c(C)c1-c1cc(C(=O)N/N=C/c2ccc(O)cc2)[nH]n1 | inactive |
| CCOC(=O)c1c(CN2CCOCC2)n(C)c2cc(Br)c(O)c(CN(C)C)c12 | inconclusive: 7.31 µM [cytotoxic, partial curve] |
| O=C(Nc1ccc2nc(-c3ccc(Br)o3)[nH]c2c1)c1cccs1 | active: 8.2 µM |
| COc1ccc(C2=C(Nc3ccc(C)cc3C)c3ccccc3C2=O)cc1 | inactive |
| CCCCN(C)CCNC(=O)CN1C(=O)CSc2ccc(S(=O)(=O)N3CCOCC3)cc21 | inconclusive: 29.1 µM [rising, single point] |
| CCCCCOC(=O)NC1CCS(=O)(=O)C1 (stereo unspecified) | inconclusive: 29.1 µM [rising, single point] |
| CCOC(=O)CC1C(=O)NCCN1C1CCCC1 (stereo unspecified) | inactive |
| COc1cc(OC)c(N(C)S(=O)(=O)c2cccc(C(=O)OCC(=O)c3c[nH]c4ccccc34)c2)cc1Cl | inconclusive: 11.6 µM [cytotoxic, partial curve] |
| C/C(=N\NC(=O)c1ccc(Cl)c(Cl)c1)c1ccc(Br)s1 | inconclusive: 3.66 µM [cytotoxic, full curve] |
| Cc1ccc2oc(=O)n(CCCOc3ccccc3Cl)c2c1 | inactive |
| c1ccc2c(-c3nc4ccccc4[nH]3)cccc2c1 | active: 4.61 µM |
| COc1cc(NC(=O)CSc2ccc(-c3ccccn3)nn2)cc(OC)c1 | inconclusive: 2.59 µM [cytotoxic, full curve] |
| CCOC(=O)CN1c2ccccc2NC(=O)CC1C (stereo unspecified) | inconclusive: 0.651 µM [cytotoxic, full curve] |
| O=C(CSc1nc(-c2ccc(F)cc2)[nH]c1-c1ccc(F)cc1)Nc1ccc2c(c1)OCO2 | inactive |
| CCC(c1nnnn1CCOC)N(Cc1cc2cc(C)c(C)cc2[nH]c1=O)CC1CCCO1 (stereo unspecified) | inactive |
| CCn1c(=O)c(C(=O)NCc2ccc(OC)cc2)c(O)c2ccccc21 | inactive |
| CCN1CCCC1Cn1cnc2c([nH]c3ccc(C)cc32)c1=O (stereo unspecified) | inactive |

Single values from above:
Potency, c1ccc2c(-c3nc4ccccc4[nH]3)cccc2c1 is entered as active: 4.61 µM
Potency, C/C(=N\NC(=O)c1ccc(Cl)c(Cl)c1)c1ccc(Br)s1 is entered as inconclusive: 3.66 µM [cytotoxic, full curve]

Further compounds:

| SMILES | Potency |
| --- | --- |
| COc1ccccc1C(CC(=O)O)c1ccc2c(c1)OCO2 (stereo unspecified) | inactive |
| Cc1ccc(Cc2c(-c3ccco3)nc3c(C)cc(Br)cn23)cc1 | inconclusive: 32.6 µM [cytotoxic, single point] |
| CCOc1ccccc1OCCOc1ccccc1OC(C)C | inactive |
| CC(=O)N1CCc2c(sc(NC(=O)C3COc4ccccc4O3)c2C(N)=O)C1 (stereo unspecified) | inconclusive: 11.6 µM [cytotoxic, partial curve] |
| COc1ccc2sc3c(=O)[nH]c4ccccc4c3c2c1 | inconclusive: 5.8 µM [cytotoxic, partial curve, poor fit] |
| CCOC(=O)C1=C[C@@H](C(C)(C)C)N(S(=O)(=O)c2ccc(C)cc2)[C@H]1c1ccc(OC)cc1 | inactive |
| FC(F)(F)c1ccc(NC(=S)NCc2ccccc2)cc1 | inconclusive: 29.1 µM [cytotoxic, single point] |
| COc1ccc(NC(NC(=O)c2cccnc2)C(Cl)(Cl)Cl)cc1 (stereo unspecified) | inactive |
| CN(C)CC(=O)Nc1ccc2cn[nH]c2c1 | inconclusive: 14.6 µM [rising, single point] |
| COc1ccc(CCNC(=O)CSc2cn(Cc3cccc(C)c3)c3ccccc23)cc1OC | inconclusive: 13 µM [cytotoxic, partial curve, poor fit] |
| Cc1ccc(Nc2c(-c3ccccn3)nc3cc(C)ccn23)cc1 | inconclusive: 23.1 µM [cytotoxic, partial curve, poor fit] |
| CN(Cc1cnc2nc(N)nc(N)c2n1)c1ccc(C(=O)NC(CCC(=O)O)C(=O)O)c2ccccc12 (stereo unspecified) | inactive |
| Cc1cc(N2CCN(C)CC2)nc2ccc(NC(=O)CCC(=O)NCCc3ccc(Cl)cc3)cc12 | inconclusive: 1.46 µM [rising, partial curve] |
| CCCCNS(=O)(=O)c1ccc(NC(=O)C2c3ccccc3Oc3ccccc32)cc1 | inconclusive: 18.4 µM [cytotoxic, single point] |
| Cc1ccnc(NC(=S)N2CCN(c3ccc(Br)cc3)CC2)c1 | inactive |
| Cc1ccc(S(=O)(=O)NCC(=O)OC(C)C(=O)NC(=O)NC2CCCCC2)cc1C (stereo unspecified) | inconclusive: 29.1 µM [rising, single point] |
| Cc1cccc(-c2ccc3[nH]c4c(c3c2)CCN2C[C@@H]([C@H](C)O)[C@@H](N(C)C(=O)Nc3ccc(F)cc3)C[C@@H]42)c1 | inactive |
| O=C(NCC(c1ccco1)N1CCCC1)c1ccccc1Sc1ccc(C(F)(F)F)cc1[N+](=O)[O-] (stereo unspecified) | inactive |
| O=C(N=C1SC2CS(=O)(=O)CC2N1Cc1ccccc1)C1CCCCC1 (stereo unspecified) | inactive |
| CCOC(=O)N1CCC(NC(=O)CSCc2nc(-c3ccc(OC)cc3)oc2C)CC1 | inconclusive: 2.91 µM [cytotoxic, full curve] |
| CCOc1cc(C(=O)NCC(c2ccc(N(C)C)cc2)N2CCOCC2)cc(OCC)c1OCC (stereo unspecified) | inactive |
| O=S(=O)(c1cccc2ccccc12)N1CCN(c2ccc(Cl)c(Cl)c2)CC1 | inconclusive: 18.4 µM [cytotoxic, single point] |
| CCN1CCN(C(=O)C2CCN(Cc3cc(Cl)ccc3O)CC2)CC1 | inactive |
